Results as given in patent US20260364098A1, “HETEROARYL COMPOUNDS AS ENDOCANNABINOID SYSTEM MODULATORS AND USES THEREOF” (Northeastern University, priority 2023, published 2026).
Some entries share one result that the patent states for a list of compounds.

Amino acid sequences for entries named in this document (tags omitted).
UniProt P21554, whole entry: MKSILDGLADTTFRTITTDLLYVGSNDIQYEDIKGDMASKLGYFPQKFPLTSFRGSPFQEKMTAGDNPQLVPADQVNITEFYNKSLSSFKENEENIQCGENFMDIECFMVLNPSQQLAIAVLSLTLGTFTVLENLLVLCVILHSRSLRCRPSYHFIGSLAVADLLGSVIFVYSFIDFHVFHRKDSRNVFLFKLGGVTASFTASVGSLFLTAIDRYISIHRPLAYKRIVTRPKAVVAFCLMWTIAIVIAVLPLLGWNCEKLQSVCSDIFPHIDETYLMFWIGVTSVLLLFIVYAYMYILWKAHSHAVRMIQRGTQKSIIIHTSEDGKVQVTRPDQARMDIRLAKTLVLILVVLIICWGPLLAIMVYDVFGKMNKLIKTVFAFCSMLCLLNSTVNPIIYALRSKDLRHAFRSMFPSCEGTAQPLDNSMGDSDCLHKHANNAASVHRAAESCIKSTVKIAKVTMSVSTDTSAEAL

Each molecule was assayed against T1, hCB1 receptors (Homo sapiens, UniProt P21554) (assay: CB1 cAMP assay (inhibition of forskolin-stimulated cAMP accumulation)). Conditions: similar to effect of compound 3 (~2-fold).
T1 construct: expressed in transfected cells
Format: cell-based
Method: CB1 cAMP assays. Compounds are evaluated for their ability to modulate the actions of orthosteric ligands at CB1 receptor sites. HEK293 and/or CHO cells stably expressing hCB1 receptors were used for the studies. The CAMP assay was carried out using Perkin Elmer's Lance Ultra cAMP kit following the protocol as described in J Biomol Screen 1999, 4, (6), 303-308. The assays are carried out in a 384-well format using 1000-1500 cells/well. The cells are harvested with non-enzymatic cell dissociation reagent Versene, washed once with Hanks' Balanced Salt Solution (HBSS), and resuspended in the stimulation buffer. […] After 30 minutes of stimulation at room temperature, the Eu-CAMP tracer working solution (5 μL) and Ulight-anti-cAMP working solution (5 μL) are added to the plate and incubated at room temperature for 60 minutes. The data are collected via PerkinElmer Envision plate reader. The EC50 values are determined by nonlinear regression analysis using GraphPad Prism software (FIGS. 2A-2H).
With `O=[N+]([O-])CC(c1ccc(B(O)O)cc1)c1c(-c2ccc(N=C=S)cc2)[nH]c2ccccc12` (stereo not drawn) [Compound 6, (4-(1-(2-(4-isothiocyanatophenyl)-1H-indol-3-yl)-2-nitroethyl)phenyl)boronic acid] the “enhancement of 2-AG EC50” value was “A similar effect is also shown”. With `O=[N+]([O-])CC(c1ccccc1)c1c(-c2ccc(B(O)O)cc2)[nH]c2ccccc12` (stereo not drawn) [Compound 5, (4-(3-(2-nitro-1-phenylethyl)-1H-indol-2-yl)phenyl)boronic acid] the “enhancement of 2-AG EC50” value was “A similar effect is also shown”. For `O=[N+]([O-])CC(c1cccc(B(O)O)c1)c1c(-c2ccccc2)[nH]c2ccccc12` (stereo not drawn) [Compound 4, (3-(2-nitro-1-(2-phenyl-1H-indol-3-yl)ethyl)phenyl)boronic acid], the “enhancement of 2-AG EC50” value was “A similar effect is also shown”.
